According to article doi:10.1101/2024.03.11.584487:
Where two headings read alike, the source gives them in different places. These are yes or no findings as the source states them, for the method shown. In cells and extracts the contact can be indirect. Some binding calls cover weakened binding; strength is not graded here.

Protein sequences, listed by entry. Tags and fused reporters are not part of them.
UniProt Q925T6: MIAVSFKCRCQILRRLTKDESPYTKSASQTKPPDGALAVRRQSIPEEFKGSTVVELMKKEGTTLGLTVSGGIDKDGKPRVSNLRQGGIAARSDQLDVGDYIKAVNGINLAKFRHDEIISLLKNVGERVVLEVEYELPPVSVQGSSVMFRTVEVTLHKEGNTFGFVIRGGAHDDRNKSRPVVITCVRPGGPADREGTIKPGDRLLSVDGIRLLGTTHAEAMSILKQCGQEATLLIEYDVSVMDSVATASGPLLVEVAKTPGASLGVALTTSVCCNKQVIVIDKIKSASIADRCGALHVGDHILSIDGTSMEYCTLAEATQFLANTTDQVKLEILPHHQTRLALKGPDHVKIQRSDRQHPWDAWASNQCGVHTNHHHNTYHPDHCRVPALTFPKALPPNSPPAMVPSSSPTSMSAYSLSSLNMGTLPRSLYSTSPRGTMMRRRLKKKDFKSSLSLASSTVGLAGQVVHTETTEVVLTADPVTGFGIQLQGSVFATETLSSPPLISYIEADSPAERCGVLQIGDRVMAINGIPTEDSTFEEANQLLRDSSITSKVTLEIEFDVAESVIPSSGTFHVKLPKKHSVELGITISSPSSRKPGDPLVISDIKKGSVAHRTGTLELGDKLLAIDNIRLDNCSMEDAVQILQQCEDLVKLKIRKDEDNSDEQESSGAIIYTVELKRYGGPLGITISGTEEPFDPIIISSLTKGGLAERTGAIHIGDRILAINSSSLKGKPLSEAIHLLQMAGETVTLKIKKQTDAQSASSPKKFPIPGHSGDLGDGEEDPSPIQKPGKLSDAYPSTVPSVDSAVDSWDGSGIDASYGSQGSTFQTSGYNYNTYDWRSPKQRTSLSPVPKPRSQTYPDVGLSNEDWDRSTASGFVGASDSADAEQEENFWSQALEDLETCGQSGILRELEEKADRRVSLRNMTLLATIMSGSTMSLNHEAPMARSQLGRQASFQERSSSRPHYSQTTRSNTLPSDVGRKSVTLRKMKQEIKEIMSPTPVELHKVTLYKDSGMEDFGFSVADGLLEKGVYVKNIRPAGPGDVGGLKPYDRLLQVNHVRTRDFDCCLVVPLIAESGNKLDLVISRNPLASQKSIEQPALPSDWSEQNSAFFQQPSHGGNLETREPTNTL
UniProt Q6NXJ0: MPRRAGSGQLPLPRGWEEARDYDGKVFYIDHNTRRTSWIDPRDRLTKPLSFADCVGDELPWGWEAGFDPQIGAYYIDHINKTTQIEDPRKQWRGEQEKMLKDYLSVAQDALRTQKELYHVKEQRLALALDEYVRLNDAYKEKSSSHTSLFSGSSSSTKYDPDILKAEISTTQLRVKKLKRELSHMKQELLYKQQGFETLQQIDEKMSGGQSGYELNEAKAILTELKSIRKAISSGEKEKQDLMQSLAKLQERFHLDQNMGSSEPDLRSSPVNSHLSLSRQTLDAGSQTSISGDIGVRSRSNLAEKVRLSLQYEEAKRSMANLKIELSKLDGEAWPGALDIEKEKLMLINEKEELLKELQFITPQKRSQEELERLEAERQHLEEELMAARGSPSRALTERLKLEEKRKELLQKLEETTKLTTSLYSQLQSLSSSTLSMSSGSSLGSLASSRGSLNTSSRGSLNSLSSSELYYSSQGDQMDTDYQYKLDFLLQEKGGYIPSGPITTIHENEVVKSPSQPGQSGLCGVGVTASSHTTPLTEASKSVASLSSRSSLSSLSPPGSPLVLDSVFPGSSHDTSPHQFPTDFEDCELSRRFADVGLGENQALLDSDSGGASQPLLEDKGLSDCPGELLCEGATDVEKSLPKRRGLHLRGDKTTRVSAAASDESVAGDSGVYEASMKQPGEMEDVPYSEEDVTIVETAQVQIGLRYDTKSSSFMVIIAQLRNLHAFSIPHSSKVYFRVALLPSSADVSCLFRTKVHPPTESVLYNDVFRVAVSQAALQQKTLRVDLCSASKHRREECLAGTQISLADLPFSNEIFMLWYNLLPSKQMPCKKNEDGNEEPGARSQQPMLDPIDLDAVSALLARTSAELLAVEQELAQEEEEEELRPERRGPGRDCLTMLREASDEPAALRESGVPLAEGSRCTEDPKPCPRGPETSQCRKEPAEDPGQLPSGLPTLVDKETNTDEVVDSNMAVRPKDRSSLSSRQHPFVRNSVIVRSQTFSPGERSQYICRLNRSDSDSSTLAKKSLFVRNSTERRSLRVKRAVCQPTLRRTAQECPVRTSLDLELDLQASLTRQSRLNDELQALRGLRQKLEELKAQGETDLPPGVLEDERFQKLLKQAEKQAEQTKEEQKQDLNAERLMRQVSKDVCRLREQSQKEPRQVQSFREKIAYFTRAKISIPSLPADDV

Legend:
Assay in all cases: co-IP
[1] = target: T1, huntingtin-associated protein 1 (HAP1) (mouse (endogenous in forebrain)) (UniProt O35668)
T1 sequence: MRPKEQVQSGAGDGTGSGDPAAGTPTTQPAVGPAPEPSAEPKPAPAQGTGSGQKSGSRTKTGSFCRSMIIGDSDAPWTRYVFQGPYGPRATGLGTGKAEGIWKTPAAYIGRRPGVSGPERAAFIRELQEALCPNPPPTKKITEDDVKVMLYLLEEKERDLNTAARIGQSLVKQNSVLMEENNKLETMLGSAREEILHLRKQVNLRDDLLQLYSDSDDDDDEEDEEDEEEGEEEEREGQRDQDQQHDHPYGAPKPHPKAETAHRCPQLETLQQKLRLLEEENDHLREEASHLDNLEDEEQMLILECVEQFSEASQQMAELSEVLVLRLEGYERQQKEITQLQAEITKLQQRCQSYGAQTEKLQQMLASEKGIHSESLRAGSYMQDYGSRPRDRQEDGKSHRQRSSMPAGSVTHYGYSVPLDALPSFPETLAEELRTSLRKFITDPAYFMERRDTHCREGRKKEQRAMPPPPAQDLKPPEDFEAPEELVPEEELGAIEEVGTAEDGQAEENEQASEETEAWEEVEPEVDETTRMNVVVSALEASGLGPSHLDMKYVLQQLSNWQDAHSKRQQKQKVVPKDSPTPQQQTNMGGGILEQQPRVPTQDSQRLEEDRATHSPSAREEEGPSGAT

[2] = target: glutamate receptor interacting protein 1 (GRIP1) (mouse (endogenous in forebrain)) (UniProt Q925T6)
[3] = target: WWC2 (WW and C2 domain-containing protein 2) (mouse (endogenous in brain)) (UniProt Q6NXJ0)
[4] = target: WWC2 (WW and C2 domain-containing protein 2) (mouse (endogenous in brain)) (UniProt Q6NXJ0); remark: listed apart in the source

WWC2 (WW and C2 domain-containing protein 2) (from UniProt Q6NXJ0 1-1187)
binding [1]: binds
binding [2]: binds

glutamate receptor interacting protein 1 (GRIP1) (from UniProt Q925T6 1-1127)
binding [3]: binds

B1: gephyrin (protein, UniProt Q8BUV3 1-769)
chain: MATEGMILTNHDHQIRVGVLTVSDSCFRNLAEDRSGINLKDLVQDPSLLGGTISAYKIVPDEIEEIKETLIDWCDEKELNLILTTGGTGFAPRDVTPEATKEVIEREAPGMALAMLMGSLNVTPLGMLSRPVCGIRGKTLIINLPGSKKGSQECFQFILPALPHAIDLLRDAIVKVKEVHDELEDLPSPPPPLSPPPTTSPHKQTEDKGVQCEEEEEEKKDSGVASTEDSSSSHITAAALAAKIPDSIISRGVQVLPRDTASLSTTPSESPRAQATSRLSTASCPTPKQIRRPDESKGVASRVGSLKARLPSCSSTYSVSEVQSRCSSKENILRASHSAVDITKVARRHRMSPFPLTSMDKAFITVLEMTPVLGTEIINYRDGMGRVLAQDVYAKDNLPPFPASVKDGYAVRAADGPGDRFIIGESQAGEQPTQTVMPGQVMRVTTGAPIPCGADAVVQVEDTELIRESDDGTEELEVRILVQARPGQDIRPIGHDIKRGECVLAKGTHMGPSEIGLLATVGVTEVEVNKFPVVAVMSTGNELLNPEDDLLPGKIRDSNRSTLLATIQEHGYPTINLGIVGDNPDDLLNALNEGISRADVIITSGGVSMGEKDYLKQVLDIDLHAQIHFGRVFMKPGLPTTFATLDIDGVRKIIFALPGNPVSAVVTCNLFVVPALRKMQGILDPRPTIIKARLSCDVKLDPRPEYHRCILTWHHQEPLPWAQSTGNQMSSRLMSMRSANGLLMLPPKTEQYVELHKGEVVDVMVIGRL
binding [4]: binds

B2: huntingtin-associated protein 1 (HAP1) (protein, UniProt O35668 1-628)
chain: MRPKEQVQSGAGDGTGSGDPAAGTPTTQPAVGPAPEPSAEPKPAPAQGTGSGQKSGSRTKTGSFCRSMIIGDSDAPWTRYVFQGPYGPRATGLGTGKAEGIWKTPAAYIGRRPGVSGPERAAFIRELQEALCPNPPPTKKITEDDVKVMLYLLEEKERDLNTAARIGQSLVKQNSVLMEENNKLETMLGSAREEILHLRKQVNLRDDLLQLYSDSDDDDDEEDEEDEEEGEEEEREGQRDQDQQHDHPYGAPKPHPKAETAHRCPQLETLQQKLRLLEEENDHLREEASHLDNLEDEEQMLILECVEQFSEASQQMAELSEVLVLRLEGYERQQKEITQLQAEITKLQQRCQSYGAQTEKLQQMLASEKGIHSESLRAGSYMQDYGSRPRDRQEDGKSHRQRSSMPAGSVTHYGYSVPLDALPSFPETLAEELRTSLRKFITDPAYFMERRDTHCREGRKKEQRAMPPPPAQDLKPPEDFEAPEELVPEEELGAIEEVGTAEDGQAEENEQASEETEAWEEVEPEVDETTRMNVVVSALEASGLGPSHLDMKYVLQQLSNWQDAHSKRQQKQKVVPKDSPTPQQQTNMGGGILEQQPRVPTQDSQRLEEDRATHSPSAREEEGPSGAT
binding [4]: binds
